Test results: article PMC5996148
This is one part of the list. For some of these results: Construct or isoform of the protein are uncertain.

Sequences of proteins named here, by UniProt entry; tags and fusion partners are left off. A change or cut given only in a name is not applied to a line headed by its entry.
UniProt O00139: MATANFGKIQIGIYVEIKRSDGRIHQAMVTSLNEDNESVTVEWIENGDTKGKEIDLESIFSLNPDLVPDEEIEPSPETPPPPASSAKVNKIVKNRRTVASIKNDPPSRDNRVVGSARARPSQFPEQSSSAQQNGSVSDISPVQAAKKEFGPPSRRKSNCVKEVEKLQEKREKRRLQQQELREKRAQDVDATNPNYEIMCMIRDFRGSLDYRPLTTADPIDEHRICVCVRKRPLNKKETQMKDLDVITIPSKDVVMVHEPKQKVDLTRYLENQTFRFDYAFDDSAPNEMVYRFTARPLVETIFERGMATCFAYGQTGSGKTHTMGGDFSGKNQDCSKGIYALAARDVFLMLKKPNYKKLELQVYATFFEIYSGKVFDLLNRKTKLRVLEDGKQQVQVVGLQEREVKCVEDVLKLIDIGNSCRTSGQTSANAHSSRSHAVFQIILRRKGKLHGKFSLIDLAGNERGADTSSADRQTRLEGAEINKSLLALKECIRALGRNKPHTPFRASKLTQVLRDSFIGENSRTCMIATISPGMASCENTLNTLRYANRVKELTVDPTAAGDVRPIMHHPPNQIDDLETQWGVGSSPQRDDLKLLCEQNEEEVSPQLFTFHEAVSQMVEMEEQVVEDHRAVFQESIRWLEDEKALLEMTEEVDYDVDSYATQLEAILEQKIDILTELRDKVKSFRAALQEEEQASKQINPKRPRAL

Assays:
Assay in all cases: protein microarray (ProtoArray v5.0), streptavidin-Alexa Fluor 647
Conditions in all cases: 3'-biotin; 20 mM Tris (pH 7.5), 5 mM MgCl2, 100 mM KCl, 0.1% Tween-20, A/T-rich and random oligonucleotide blockers; temperature not stated; high values mean tight binding
KIAA0562 (human) = tested on: KIAA0562 (human)
KIAA0652 (human) = tested on: KIAA0652 (human)
KIAA1143 (human) = tested on: KIAA1143 (human)
KIAA1576 (human) = tested on: KIAA1576 (human)
KIAA1598 (human) = tested on: KIAA1598 (human)
KIAA1609 (human) = tested on: KIAA1609 (human)
KIAA1754 (human) = tested on: KIAA1754 (human)
KIF2A = KIF2A (UniProt O00139)
KIFC3 (human) = tested on: KIFC3 (human)
KIR2DL3 (human) = tested on: KIR2DL3 (human)

For “GGTGACAGGGGTATGGGGAGGGG [G4-2 biotinylated (Ct1)]”, which binding signal (KIAA0562 (human)) is on record?
The binding signal was -0.37 z-score.

What about the binding signal (KIAA0652 (human)) of the same sequence?
The binding signal was -0.363 z-score.

What about the binding signal (KIAA1143 (human)) of the same sequence?
The binding signal was -0.403 z-score.

What about the binding signal (KIAA1576 (human)) of the same sequence?
The binding signal was -0.389 z-score.

What about the binding signal (KIAA1598 (human)) of the same sequence?
Its binding signal is -0.394 z-score.

And the binding signal (KIAA1609 (human))?
The binding signal was -0.387 z-score.

And the binding signal (KIAA1754 (human))?
Its binding signal is -0.372 z-score.

What about the binding signal (KIF2A) of the same sequence?
Its binding signal is 3.13 z-score.

What about the binding signal (KIFC3 (human)) of the same sequence?
Its binding signal is -0.388 z-score.

What about the binding signal (KIR2DL3 (human)) of the same sequence?
Its binding signal is -0.379 z-score.
